PubChem BioAssay AID1259405 – NCATS, 2018
Test: 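Knock-downs that lift recombinant protein yield in hamster ovary cells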 (primary screen). Cell system: Chinese hamster CHO-K1 ovary cells with stable secreted eGFP expression. Reagent: single siRNA against mouse genes, 0.8 pmol siRNA per well (2 µl of 400 nM stock). Timing: 3 days. Read-out: 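Percent of the per-plate non-targeting control median for intracellular GFP per well by laser scanning cytometry and for cell viability by ATP luminescence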. Reading the numbers: GFP, % of control: higher = more GFP per well, higher productivity; viability (ATP), % of control: higher = more viable cells (more ATP). Active means: 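Called active when intracellular GFP, relative to negative control, is at or above 120%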.
Here is one part, drawn at random, of about 50,000 reagents tested. Over the whole deposit, about 4,000 (8%) are marked active. 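Mouse siRNA library applied to hamster cells; one well for each siRNA.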 Entries without a mark were called inactive. Reagents against one gene are numbered here.

GFP, % of control	viability (ATP), % of control	target gene	reagent no.
63.8	63.9	Palmd (palmdelphin)	1
81.2	71.1	Palmd (palmdelphin)	2
82.8	101	Palmd (palmdelphin)	3
50.9	50.2	Pnck (pregnancy upregulated non-ubiquitously expressed CaM kinase)	1
46.8	55.6	Pnck (pregnancy upregulated non-ubiquitously expressed CaM kinase)	2
71.1	81.2	Pnck (pregnancy upregulated non-ubiquitously expressed CaM kinase)	3
62.7	45.8	Adam6b (a disintegrin and metallopeptidase domain 6B)	1
67.3	79.3	Adam6b (a disintegrin and metallopeptidase domain 6B)	2
78.9	90.4	Adam6b (a disintegrin and metallopeptidase domain 6B)	3
92.2	76	Zc3h13 (zinc finger CCCH type containing 13)	1
62.2	63.6	Zc3h13 (zinc finger CCCH type containing 13)	2
94	102	Zc3h13 (zinc finger CCCH type containing 13)	3
67.9	70.7	Krit1 (KRIT1, ankyrin repeat containing)	1
94.8	99	Krit1 (KRIT1, ankyrin repeat containing)	2
57.2	58.9	Krit1 (KRIT1, ankyrin repeat containing)	3
59.6	62.3	Gpn2 (GPN-loop GTPase 2)	1
70.1	58.5	Gpn2 (GPN-loop GTPase 2)	2
101	51.8	Gpn2 (GPN-loop GTPase 2)	3
75.2	89.1	Lsr (lipolysis stimulated lipoprotein receptor)	1
84.3	82.4	Lsr (lipolysis stimulated lipoprotein receptor)	2
85.1	63.1	Lsr (lipolysis stimulated lipoprotein receptor)	3
70.2	72.6	Camkv (CaM kinase-like vesicle-associated)	1
57.6	64.2	Rhox8 (reproductive homeobox 8)	1
93.1	46	Rhox8 (reproductive homeobox 8)	2
119	85.3	Rhox8 (reproductive homeobox 8)	3
116	89.9	Gpx2 (glutathione peroxidase 2)	1
50.5	52.6	Gpx2 (glutathione peroxidase 2)	2
88.8	76.8	Gpx2 (glutathione peroxidase 2)	3
96.3	81.5	Pcid2 (PCI domain containing 2)	1
42.9	28.4	Pcid2 (PCI domain containing 2)	2
66.5	87.9	Pcid2 (PCI domain containing 2)	3
104	62	Snrnp25 (small nuclear ribonucleoprotein 25 (U11/U12))	1
63.4	60	Snrnp25 (small nuclear ribonucleoprotein 25 (U11/U12))	2
100	86.9	Snrnp25 (small nuclear ribonucleoprotein 25 (U11/U12))	3
134 (active)	83.4	Zfp74 (zinc finger protein 74)	1
88.3	69.4	Zfp74 (zinc finger protein 74)	2
99	52.7	Dcx (doublecortin)	1
86.6	79.5	Dcx (doublecortin)	2
80.8	83.4	Dcx (doublecortin)	3
69.8	97.9	Cdkn1a (cyclin dependent kinase inhibitor 1A)	1
97	84.5	Cdkn1a (cyclin dependent kinase inhibitor 1A)	2
76.7	85.9	Med24 (mediator complex subunit 24)	1
69.3	60.2	Med24 (mediator complex subunit 24)	2
71.4	63.9	Med24 (mediator complex subunit 24)	3
110	107	Srsf4 (serine and arginine-rich splicing factor 4)	1
83	69	Srsf4 (serine and arginine-rich splicing factor 4)	2
43.8	47.1	Srsf4 (serine and arginine-rich splicing factor 4)	3
80.1	59.8	Mbnl2 (muscleblind like splicing factor 2)	1
66.7	77.2	Mbnl2 (muscleblind like splicing factor 2)	2
50.9	50.8	Mbnl2 (muscleblind like splicing factor 2)	3
99.8	97.9	Hoxd10 (homeobox D10)	1
71.4	81.2	Hoxd10 (homeobox D10)	2
45.2	48.7	Hoxd10 (homeobox D10)	3
45.6	53.4	Slc22a21	1
57.6	70.2	Slc22a21	2
87.7	110	Slc22a21	3
52	59.8	Nipsnap2 (nipsnap homolog 2)	1
49.2	37.3	Nipsnap2 (nipsnap homolog 2)	2
83.5	73.8	Nipsnap2 (nipsnap homolog 2)	3
83.8	86.7	Mapk11 (mitogen-activated protein kinase 11)	1
56.4	69	Dnajb9 (DnaJ heat shock protein family (Hsp40) member B9)	1
62.9	79.2	Dnajb9 (DnaJ heat shock protein family (Hsp40) member B9)	2
50	68.3	Dnajb9 (DnaJ heat shock protein family (Hsp40) member B9)	3
119	64.4	Hacd1 (3-hydroxyacyl-CoA dehydratase 1)	1
81	60.3	Hacd1 (3-hydroxyacyl-CoA dehydratase 1)	2
157 (active)	101	Vipr1 (vasoactive intestinal peptide receptor 1)	1
36.8	63.8	Vipr1 (vasoactive intestinal peptide receptor 1)	2
36.3	59	Vipr1 (vasoactive intestinal peptide receptor 1)	3
67.5	58.7	Or6c70 (olfactory receptor family 6 subfamily C member 70)	1
92.8	30.3	Or6c70 (olfactory receptor family 6 subfamily C member 70)	2
88.2	59.5	Or6c70 (olfactory receptor family 6 subfamily C member 70)	3
88.3	85.3	Psmb2 (proteasome (prosome, macropain) subunit, beta type 2)	1
15.7	7.73	Psmb2 (proteasome (prosome, macropain) subunit, beta type 2)	2
28.8	6.99	Psmb2 (proteasome (prosome, macropain) subunit, beta type 2)	3
63.9	52.8	Zfp608 (zinc finger protein 608)	1
48.4	59	Zfp608 (zinc finger protein 608)	2
105	87	Zfp608 (zinc finger protein 608)	3
81.9	68	Or5al1 (olfactory receptor family 5 subfamily AL member 1)	1
71.7	41	Or5al1 (olfactory receptor family 5 subfamily AL member 1)	2
66.7	64.8	Or5al1 (olfactory receptor family 5 subfamily AL member 1)	3
97.7	71.1	Mup3 (major urinary protein 3)	1
89.5	101	Mup3 (major urinary protein 3)	2
53.8	40.9	Mup3 (major urinary protein 3)	3
84	88.7	Or4k49 (olfactory receptor family 4 subfamily K member 49)	1
69.8	86.2	Or4k49 (olfactory receptor family 4 subfamily K member 49)	2
53.8	98.2	Or4k49 (olfactory receptor family 4 subfamily K member 49)	3
